# Source: article doi:10.1101/2023.12.12.570754
# Sequences of proteins named here, by UniProt entry; tags and fusion partners are left off.
# UniProt P23475: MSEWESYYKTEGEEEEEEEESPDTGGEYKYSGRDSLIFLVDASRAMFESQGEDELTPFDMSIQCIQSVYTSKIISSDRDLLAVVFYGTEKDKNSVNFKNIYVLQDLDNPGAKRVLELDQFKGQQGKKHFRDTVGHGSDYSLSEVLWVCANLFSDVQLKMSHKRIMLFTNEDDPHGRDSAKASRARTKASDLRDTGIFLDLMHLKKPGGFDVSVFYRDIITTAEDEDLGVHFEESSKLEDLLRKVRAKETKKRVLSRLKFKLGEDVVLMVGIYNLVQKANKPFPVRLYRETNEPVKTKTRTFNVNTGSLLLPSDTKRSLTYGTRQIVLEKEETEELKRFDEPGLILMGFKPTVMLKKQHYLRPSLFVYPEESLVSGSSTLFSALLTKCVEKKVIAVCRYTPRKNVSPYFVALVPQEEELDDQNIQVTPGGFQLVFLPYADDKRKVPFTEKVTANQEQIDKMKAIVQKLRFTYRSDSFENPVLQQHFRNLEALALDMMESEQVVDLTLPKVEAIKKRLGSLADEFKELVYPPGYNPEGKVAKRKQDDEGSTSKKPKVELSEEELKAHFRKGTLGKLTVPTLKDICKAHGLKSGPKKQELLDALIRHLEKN
# UniProt P27641: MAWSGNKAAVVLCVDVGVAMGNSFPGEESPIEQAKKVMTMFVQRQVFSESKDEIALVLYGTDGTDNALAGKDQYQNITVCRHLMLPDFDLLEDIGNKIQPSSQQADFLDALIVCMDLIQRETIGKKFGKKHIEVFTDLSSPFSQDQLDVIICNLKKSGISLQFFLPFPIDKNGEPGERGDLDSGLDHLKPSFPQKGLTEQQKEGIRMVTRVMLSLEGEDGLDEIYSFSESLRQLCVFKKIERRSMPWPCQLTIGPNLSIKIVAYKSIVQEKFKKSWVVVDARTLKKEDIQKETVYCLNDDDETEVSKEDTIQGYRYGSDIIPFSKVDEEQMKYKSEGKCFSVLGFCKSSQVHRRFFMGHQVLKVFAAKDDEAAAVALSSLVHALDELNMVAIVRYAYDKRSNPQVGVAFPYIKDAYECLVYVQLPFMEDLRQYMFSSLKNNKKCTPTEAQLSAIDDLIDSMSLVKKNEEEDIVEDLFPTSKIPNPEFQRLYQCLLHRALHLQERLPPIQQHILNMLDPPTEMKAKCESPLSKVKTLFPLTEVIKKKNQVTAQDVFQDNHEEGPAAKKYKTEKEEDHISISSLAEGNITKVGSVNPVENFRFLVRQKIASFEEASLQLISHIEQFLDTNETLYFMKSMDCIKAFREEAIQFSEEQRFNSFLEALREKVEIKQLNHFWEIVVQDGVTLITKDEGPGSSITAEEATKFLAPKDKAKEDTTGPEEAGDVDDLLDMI
# Biological target: T1, N-terminal GFP-tagged RAG2 C-terminal region (aa351-527) fusion protein (human) (UniProt P55895)
# T1 sequence: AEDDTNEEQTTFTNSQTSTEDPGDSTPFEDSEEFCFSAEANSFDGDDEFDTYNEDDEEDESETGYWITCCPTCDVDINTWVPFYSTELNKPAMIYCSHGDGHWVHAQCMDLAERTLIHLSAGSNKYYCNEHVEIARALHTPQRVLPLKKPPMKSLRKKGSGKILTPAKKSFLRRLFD
# Test: affinity purification with mass spectrometry
row,binding,Substance
1,binds,endogenous Ku70 (XRCC6) (from UniProt P23475 1-608)
2,binds,endogenous Ku80 (XRCC5) (from UniProt P27641 1-732)

# No constants are given. Whether binding was seen depends on the method and setting. In cells and extracts the contact can be indirect. These calls come from enrichment with a bait or labelling near it, and not all partners need be listed. Sequences can lack the tags named with a protein.
